{"source": "patent US20260201062A1", "about": "(JIANGSU HENGRUI MEDICINE CO., LTD., priority 2018, published 2026)", "test": "general procedure: solution-phase peptide synthesis; 4-(4,6-dimethoxy-1,3,5-triazin-2-yl)-4-methylmorpholinium chloride", "settings": "for conjugation yield: conjugation step; for final HPLC purity: UPLC (ACQUITY UPLC BEH C18)", "data": [{"substance": "1-(((S)-7-Benzyl-20-(2,5-dioxo-2,5-dihydro-1H-pyrrol-1-yl)-3,6,9,12,15-pentaoxo-2,5,8,11,14-pentaazaicosyl)oxy)-N-((1S,9S)-9-ethyl-5-fluoro-9-hydroxy-4-methyl-10,13-dioxo-2,3,9,10,13,15-hexahydro-1H,12H-benzo[de]pyrano[3′,4′:6,7]indolizino[1,2-b]quinolin-1-yl)cyclopropane-1-carboxamide 8", "values": [{"measurement": "step yield", "setting": "coupling step", "result": 39.0, "unit": "%"}]}, {"substance": "2,4-Dimethoxybenzyl (11S,19S)-11-benzyl-19-cyclopropyl-1-(9H-fluoren-9-yl)-3,6,9,12,15-pentaoxo-2,18-dioxa-4,7,10,13,16-pentaazaicosan-20-oate", "values": [{"measurement": "step yield", "setting": "coupling step", "result": 80.2, "unit": "%"}]}, {"substance": "2,4-Dimethoxybenzyl (S)-1-((11-benzyl-1-(9H-fluoren-9-yl)-3,6,9,12,15-pentaoxo-2-oxa-4,7,10,13,16-pentaazaheptadecan-17-yl)oxy)cyclopropane-1-carboxylate", "values": [{"measurement": "step yield", "setting": "coupling step", "result": 83.9, "unit": "%"}]}, {"substance": "(9H-Fluoren-9-yl)methyl ((2R,10S)-10-benzyl-2-cyclopropyl-1-(((1S,9S)-9-ethyl-5-fluoro-9-hydroxy-4-methyl-10,13-dioxo-2,3,9,10,13,15-hexahydro-1H,12H-benzo[de]pyrano[3′,4′:6,7]indolizino[1,2-b]quinolin-1-yl)amino)-1,6,9,12,15-pentaoxo-3-oxa-5,8,11,14-tetraazahexadecan-16-yl) carbamate", "values": [{"measurement": "conjugation yield", "result": 35.6, "unit": "%"}]}, {"substance": "(9H-Fluoren-9-yl)methyl ((2S,10S)-10-benzyl-2-cyclopropyl-1-(((1S,9S)-9-ethyl-5-fluoro-9-hydroxy-4-methyl-10,13-dioxo-2,3,9,10,13,15-hexahydro-1H,12H-benzo[de]pyrano[3′,4′:6,7]indolizino[1,2-b]quinolin-1-yl)amino)-1,6,9,12,15-pentaoxo-3-oxa-5,8,11,14-tetraazahexadecan-16-yl)c arbamate", "values": [{"measurement": "conjugation yield", "result": 79.8, "unit": "%"}]}, {"substance": "(11S,19R)-11-Benzyl-19-cyclopropyl-1-(9H-fluoren-9-yl)-3,6,9,12,15-pentaoxo-2,18-dioxa-4,7,10,13,16-pentaazaicosan-20-oic acid", "values": [{"measurement": "step yield", "setting": "late stage modification step", "result": 79.1, "unit": "%"}]}, {"substance": "(11S,19R)-11-benzyl-19-cyclopropyl-1-(9H-fluoren-9-yl)-3,6,9,12,15-pentaoxo-2,18-dioxa-4,7,10,13,16-pentaazaicosan-20-oate", "values": [{"measurement": "step yield", "setting": "coupling step", "result": 77.1, "unit": "%"}]}, {"substance": "(11S,19S)-11-Benzyl-19-cyclopropyl-1-(9H-fluoren-9-yl)-3,6,9,12,15-pentaoxo-2,18-dioxa-4,7,10,13,16-pentaazaicosan-20-oic acid", "values": [{"measurement": "step yield", "setting": "late stage modification step", "result": 99.2, "unit": "%"}]}, {"substance": "(S)-1-((11-Benzyl-1-(9H-fluoren-9-yl)-3,6,9,12,15-pentaoxo-2-oxa-4,7,10,13,16-pentaazaheptadecan-17-yl)oxy)cyclopropane-1-carboxylic acid", "values": [{"measurement": "step yield", "setting": "late stage modification step", "result": 84.1, "unit": "%"}]}, {"substance": "N-((2R,105)-10-Benzyl-2-cyclopropyl-1-(((1S,9S)-9-ethyl-5-ﬂuoro-9-hydroxy-4- methyl-10,13-dioxo-2,3,9,10,13,15-hexahydro-1H,12H-benzo[de]pyrano[3′,4′:6,7] indolizino[1,2-b]quinolin-1-yl)amino)-1,6,9,12,15-pentaoxo-3-oxa-5,8,11,14- tetraazahexadecan-16-y1)-6-(2,5-dioxo-2,5-dihydro-1H-pyrrol-1-y1)hexanamide 9-A", "values": [{"measurement": "final HPLC purity", "setting": "coupling step", "result": 85, "unit": "%"}]}, {"substance": "N-((2S,10S)-10-Benzyl-2-cyclopropyl-1-(((1S,9S)-9-ethyl-5-ﬂuoro-9-hydroxy-4- methyl-10,13-dioxo-2,3,9,10,13,15-hexahydro-1H,12H-benzo[de]pyrano[3′,4′:6,7] indolizino[1,2-b]quinolin-1-yl)amino)-1,6,9,12,15-pentaoxo-3-oxa-5,8,11,14- tetraazahexadecan-16-y1)-6-(2,5-dioxo-2,5-dihydro-1H-pyrrol-1-y1)hexanamide 9-B", "values": [{"measurement": "final HPLC purity", "setting": "coupling step", "result": 89, "unit": "%"}]}]}
